Results: paper doi:10.1101/493791
These are yes or no findings as the source states them, for the method shown. Binding seen in cells or lysates may run through a third protein. These calls come from enrichment with a bait or labelling near it, and not all partners need be listed.

By UniProt entry, the sequences of proteins in these tests, tags left out. Residues count along the entry.
UniProt Q969H0: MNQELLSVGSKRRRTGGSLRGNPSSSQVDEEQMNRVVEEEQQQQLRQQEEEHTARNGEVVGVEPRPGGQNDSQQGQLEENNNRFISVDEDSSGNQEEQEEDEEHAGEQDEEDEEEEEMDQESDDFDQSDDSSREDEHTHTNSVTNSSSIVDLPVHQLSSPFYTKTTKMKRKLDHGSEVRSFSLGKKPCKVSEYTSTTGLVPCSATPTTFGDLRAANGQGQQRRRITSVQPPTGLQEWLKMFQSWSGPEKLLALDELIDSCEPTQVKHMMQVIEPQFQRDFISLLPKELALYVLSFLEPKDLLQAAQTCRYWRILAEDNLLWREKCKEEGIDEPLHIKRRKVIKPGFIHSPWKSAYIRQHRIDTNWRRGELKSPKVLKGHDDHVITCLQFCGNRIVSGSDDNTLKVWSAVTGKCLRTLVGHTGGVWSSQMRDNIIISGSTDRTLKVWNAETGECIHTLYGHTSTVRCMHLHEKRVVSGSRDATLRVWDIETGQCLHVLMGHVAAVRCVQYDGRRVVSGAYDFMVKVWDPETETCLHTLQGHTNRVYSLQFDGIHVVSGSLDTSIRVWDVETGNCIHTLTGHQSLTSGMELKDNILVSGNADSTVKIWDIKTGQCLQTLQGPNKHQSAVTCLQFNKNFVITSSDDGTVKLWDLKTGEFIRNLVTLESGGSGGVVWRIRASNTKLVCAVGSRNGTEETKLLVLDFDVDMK
UniProt P01106: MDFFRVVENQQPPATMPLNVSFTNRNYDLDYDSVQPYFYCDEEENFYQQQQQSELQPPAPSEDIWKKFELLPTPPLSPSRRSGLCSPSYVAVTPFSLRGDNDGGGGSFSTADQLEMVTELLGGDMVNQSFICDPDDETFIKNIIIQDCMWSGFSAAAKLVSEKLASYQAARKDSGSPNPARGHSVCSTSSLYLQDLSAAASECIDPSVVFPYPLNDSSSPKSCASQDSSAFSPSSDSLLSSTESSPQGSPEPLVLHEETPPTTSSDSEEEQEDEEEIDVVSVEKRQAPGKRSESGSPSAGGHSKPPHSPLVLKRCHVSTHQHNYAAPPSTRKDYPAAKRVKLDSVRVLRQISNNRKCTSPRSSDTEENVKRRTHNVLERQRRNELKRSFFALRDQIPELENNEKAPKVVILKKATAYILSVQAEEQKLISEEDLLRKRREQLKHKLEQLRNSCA
UniProt Q04721, residues 26-2471: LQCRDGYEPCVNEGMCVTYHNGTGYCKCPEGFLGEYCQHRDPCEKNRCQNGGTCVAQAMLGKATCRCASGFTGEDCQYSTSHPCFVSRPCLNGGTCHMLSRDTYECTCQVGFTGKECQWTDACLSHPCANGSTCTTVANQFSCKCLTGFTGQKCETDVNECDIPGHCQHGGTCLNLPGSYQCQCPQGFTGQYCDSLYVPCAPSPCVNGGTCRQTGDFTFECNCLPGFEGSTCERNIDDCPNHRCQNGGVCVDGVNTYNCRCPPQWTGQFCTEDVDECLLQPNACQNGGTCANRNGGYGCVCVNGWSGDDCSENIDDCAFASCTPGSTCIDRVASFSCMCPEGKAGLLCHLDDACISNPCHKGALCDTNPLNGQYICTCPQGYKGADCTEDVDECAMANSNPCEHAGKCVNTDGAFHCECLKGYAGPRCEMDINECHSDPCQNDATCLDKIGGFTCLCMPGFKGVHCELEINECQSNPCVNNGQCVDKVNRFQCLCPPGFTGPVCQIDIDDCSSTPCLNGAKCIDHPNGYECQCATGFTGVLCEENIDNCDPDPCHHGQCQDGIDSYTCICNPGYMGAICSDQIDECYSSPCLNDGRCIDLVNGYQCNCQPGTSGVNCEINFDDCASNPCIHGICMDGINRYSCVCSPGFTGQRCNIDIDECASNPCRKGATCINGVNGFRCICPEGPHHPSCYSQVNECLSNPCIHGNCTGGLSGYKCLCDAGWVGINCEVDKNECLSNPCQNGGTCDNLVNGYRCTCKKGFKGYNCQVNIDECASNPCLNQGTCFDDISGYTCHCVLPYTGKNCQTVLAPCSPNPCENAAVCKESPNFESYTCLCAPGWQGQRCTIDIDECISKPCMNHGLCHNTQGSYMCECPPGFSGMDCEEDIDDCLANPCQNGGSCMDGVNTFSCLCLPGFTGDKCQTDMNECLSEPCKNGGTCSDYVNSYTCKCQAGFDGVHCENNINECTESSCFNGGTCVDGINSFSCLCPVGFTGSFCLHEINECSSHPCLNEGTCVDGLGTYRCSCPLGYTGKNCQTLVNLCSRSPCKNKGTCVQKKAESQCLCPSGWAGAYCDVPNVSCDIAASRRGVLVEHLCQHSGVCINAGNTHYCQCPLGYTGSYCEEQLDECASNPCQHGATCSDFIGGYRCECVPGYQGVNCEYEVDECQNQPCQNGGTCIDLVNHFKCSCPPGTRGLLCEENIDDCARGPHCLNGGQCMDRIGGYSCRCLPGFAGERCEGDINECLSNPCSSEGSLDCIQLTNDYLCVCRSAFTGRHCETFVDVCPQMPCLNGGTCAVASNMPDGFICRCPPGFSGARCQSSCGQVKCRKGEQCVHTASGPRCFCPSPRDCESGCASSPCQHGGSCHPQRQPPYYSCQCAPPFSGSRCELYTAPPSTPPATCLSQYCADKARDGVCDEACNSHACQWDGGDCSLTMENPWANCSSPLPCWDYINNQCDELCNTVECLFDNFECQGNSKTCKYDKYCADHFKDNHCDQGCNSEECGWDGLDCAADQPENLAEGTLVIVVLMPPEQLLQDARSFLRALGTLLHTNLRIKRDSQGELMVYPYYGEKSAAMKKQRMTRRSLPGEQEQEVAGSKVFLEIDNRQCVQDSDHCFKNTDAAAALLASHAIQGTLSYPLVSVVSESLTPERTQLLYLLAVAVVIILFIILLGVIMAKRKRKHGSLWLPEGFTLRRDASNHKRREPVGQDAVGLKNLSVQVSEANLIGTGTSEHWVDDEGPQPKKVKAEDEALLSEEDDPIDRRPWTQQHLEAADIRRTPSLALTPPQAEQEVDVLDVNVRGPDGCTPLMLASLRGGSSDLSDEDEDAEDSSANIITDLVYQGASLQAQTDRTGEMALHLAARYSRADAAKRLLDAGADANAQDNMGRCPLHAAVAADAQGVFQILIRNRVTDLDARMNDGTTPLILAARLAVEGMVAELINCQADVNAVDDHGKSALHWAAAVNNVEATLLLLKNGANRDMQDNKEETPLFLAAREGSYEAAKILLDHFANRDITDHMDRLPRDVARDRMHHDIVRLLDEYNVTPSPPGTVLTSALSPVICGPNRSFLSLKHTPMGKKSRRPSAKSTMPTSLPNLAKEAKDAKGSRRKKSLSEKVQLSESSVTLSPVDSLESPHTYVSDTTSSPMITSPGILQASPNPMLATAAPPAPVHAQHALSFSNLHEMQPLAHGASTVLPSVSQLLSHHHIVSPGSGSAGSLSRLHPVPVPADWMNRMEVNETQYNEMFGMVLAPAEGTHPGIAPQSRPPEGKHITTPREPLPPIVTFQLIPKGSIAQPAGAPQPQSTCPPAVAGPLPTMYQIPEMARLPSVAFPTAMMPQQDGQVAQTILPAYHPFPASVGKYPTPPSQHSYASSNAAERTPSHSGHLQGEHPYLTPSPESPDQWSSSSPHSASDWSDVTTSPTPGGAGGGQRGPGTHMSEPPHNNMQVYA

B1: FBXO45 (endogenous) (protein, UniProt P0C2W1 1-286)
chain: MAAPAPGAGAASGGAGCSGGGAGAGAGSGSGAAGAGGRLPSRVLELVFSYLELSELRSCALVCKHWYRCLHGDENSEVWRSLCARSLAEEALRTDILCNLPSYKAKIRAFQHAFSTNDCSRNVYIKKNGFTLHRNPIAQSTDGARTKIGFSEGRHAWEVWWEGPLGTVAVIGIATKRAPMQCQGYVALLGSDDQSWGWNLVDNNLLHNGEVNGSFPQCNNAPKYQIGERIRVILDMEDKTLAFERGYEFLGVAFRGLPKVCLYPAVSAVYGNTEVTLVYLGKPLDG

molecular target: Flag-FBXW7α (full-length) (human) (UniProt Q969H0); assay: affinity purification with mass spectrometry

binding, binds:
MYC (from UniProt P01106 1-454)
Notch2 (from UniProt Q04721 26-2471)
B1
